Reference: paper PMC8325870, “SUMOylated non-canonical polycomb PRC1.6 complex as a prerequisite for recruitment of transcription factor RBPJ”
These are yes or no findings as the source states them, for the method shown. In cells and extracts the contact can be indirect. A yes stands for co-enrichment or nearness to the bait. Other partners may have been found.

By UniProt entry, the sequences of proteins in these tests, tags left out. Where a name states a change or a piece, a line headed by the entry shows the natural chain unless it says otherwise.
UniProt Q06330: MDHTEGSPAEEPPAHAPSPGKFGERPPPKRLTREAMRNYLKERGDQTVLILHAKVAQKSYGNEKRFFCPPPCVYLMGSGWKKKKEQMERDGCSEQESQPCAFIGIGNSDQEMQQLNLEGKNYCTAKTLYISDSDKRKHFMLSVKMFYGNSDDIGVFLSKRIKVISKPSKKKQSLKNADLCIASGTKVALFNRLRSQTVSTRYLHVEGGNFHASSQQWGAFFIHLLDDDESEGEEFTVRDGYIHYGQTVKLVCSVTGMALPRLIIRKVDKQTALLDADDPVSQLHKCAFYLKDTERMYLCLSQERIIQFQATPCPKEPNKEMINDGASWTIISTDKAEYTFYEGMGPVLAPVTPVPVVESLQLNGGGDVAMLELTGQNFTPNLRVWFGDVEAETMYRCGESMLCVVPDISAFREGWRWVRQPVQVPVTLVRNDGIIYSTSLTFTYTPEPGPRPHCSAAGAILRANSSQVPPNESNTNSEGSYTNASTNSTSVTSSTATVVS
UniProt O75461: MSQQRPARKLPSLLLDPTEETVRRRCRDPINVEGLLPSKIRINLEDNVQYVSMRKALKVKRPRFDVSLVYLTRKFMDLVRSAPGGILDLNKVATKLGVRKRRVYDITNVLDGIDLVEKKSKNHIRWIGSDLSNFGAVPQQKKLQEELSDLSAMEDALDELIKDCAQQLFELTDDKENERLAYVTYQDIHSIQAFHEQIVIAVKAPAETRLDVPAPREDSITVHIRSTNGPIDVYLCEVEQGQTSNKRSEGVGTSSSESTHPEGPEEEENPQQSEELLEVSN
UniProt Q969R5: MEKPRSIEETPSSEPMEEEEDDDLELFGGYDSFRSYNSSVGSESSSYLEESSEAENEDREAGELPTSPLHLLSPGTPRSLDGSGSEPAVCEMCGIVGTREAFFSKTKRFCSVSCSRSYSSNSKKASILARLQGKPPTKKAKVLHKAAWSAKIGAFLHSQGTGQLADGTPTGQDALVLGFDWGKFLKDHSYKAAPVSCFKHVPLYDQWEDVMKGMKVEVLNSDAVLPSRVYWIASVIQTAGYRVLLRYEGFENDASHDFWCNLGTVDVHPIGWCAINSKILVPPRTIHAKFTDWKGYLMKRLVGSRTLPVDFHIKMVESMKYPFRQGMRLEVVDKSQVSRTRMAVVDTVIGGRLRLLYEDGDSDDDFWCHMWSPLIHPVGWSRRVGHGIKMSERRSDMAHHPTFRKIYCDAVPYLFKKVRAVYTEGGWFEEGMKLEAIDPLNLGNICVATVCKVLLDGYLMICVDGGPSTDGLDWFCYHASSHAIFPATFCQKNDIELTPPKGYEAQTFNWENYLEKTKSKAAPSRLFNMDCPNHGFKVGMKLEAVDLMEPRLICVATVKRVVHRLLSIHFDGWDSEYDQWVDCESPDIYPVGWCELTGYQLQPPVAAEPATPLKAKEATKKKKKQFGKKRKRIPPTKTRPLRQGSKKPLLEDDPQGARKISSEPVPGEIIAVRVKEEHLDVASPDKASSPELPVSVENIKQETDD
UniProt Q04721: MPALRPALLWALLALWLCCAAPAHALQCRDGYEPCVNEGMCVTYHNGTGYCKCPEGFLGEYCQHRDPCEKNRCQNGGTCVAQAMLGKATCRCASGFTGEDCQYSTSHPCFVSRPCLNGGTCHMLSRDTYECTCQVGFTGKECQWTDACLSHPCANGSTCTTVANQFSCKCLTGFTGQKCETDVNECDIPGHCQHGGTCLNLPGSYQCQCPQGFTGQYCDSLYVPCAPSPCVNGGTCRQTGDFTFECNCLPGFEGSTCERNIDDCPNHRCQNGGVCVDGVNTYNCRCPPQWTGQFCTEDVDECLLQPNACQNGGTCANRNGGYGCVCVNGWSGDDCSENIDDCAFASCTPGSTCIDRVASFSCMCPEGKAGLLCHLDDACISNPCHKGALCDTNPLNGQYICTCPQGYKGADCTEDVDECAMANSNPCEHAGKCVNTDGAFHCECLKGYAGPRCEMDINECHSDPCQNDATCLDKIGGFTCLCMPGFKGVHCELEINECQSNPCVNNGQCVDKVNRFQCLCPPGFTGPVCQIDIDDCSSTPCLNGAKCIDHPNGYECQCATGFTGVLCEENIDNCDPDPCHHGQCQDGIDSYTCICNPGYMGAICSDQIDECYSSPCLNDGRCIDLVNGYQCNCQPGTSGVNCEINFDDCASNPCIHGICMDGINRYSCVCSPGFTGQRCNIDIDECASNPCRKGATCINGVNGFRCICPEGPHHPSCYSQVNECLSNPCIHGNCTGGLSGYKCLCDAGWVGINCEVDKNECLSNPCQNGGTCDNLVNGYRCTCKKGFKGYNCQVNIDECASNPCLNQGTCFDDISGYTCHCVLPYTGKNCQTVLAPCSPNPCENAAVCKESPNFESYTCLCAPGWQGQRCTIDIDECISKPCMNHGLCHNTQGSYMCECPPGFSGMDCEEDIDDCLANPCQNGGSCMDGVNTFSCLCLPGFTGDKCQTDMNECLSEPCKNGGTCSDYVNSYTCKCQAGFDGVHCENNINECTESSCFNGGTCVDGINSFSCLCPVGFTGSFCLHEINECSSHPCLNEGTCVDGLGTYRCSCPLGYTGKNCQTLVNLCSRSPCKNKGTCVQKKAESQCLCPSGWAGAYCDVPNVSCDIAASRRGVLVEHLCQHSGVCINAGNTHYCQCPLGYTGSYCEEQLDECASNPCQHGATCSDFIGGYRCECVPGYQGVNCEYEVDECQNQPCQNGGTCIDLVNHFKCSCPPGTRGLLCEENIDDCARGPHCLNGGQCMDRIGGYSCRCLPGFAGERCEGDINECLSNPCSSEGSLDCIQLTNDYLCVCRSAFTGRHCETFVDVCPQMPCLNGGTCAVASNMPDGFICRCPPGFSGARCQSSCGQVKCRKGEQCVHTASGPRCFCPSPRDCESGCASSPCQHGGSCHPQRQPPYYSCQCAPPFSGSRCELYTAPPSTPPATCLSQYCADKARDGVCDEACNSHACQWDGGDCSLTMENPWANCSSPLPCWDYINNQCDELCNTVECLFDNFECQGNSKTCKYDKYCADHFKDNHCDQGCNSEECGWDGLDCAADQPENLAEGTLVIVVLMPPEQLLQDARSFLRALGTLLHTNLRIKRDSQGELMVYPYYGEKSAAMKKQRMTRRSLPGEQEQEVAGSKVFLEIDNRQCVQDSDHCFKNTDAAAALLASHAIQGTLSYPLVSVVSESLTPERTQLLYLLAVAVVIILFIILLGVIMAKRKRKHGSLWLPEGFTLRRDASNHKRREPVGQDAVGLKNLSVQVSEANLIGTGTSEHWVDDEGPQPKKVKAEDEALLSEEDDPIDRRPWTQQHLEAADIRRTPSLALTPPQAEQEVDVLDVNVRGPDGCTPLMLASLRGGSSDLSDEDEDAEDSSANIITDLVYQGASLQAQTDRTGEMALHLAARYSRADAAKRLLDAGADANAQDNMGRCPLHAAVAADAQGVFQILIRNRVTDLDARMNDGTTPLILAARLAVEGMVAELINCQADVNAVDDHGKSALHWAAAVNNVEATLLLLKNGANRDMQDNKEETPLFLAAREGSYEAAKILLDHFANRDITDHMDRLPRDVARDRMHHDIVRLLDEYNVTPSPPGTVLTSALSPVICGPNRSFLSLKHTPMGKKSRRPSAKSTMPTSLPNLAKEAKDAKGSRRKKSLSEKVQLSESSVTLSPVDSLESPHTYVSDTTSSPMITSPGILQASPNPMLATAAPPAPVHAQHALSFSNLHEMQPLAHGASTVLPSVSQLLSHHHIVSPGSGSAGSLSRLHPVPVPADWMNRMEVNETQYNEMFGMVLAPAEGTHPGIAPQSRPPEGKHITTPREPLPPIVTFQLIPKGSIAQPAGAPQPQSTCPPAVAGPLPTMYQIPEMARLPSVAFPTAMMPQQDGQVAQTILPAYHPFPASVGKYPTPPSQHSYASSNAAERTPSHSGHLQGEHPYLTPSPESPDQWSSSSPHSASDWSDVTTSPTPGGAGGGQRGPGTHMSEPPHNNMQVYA

B1: RITA (RBPJ Interacting and tubulin associated) (protein, UniProt Q96K30 1-269)
chain: MKTPVELAVSGMQTLGLQHRCRGGYRVKARTSYVDETLFGSPAGTRPTPPDFDPPWVEKANRTRGVGKEASKALGAKGSCETTPSRGSTPTLTPRKKNKYRPISHTPSYCDESLFGSRSEGASFGAPRMAKGDAAKLRALLWTPPPTPRGSHSPRPREAPLRAIHPAGPSKTEPGPAADSQKLSMGGLHSSRPLKRGLSHSLTHLNVPSTGHPATSAPHTNGPQDLRPSTSGVTFRSPLVTSRARSVSISVPSTPRRGGATQKPKPPWK

Target: Flag-HA-tagged human RBPJ (human) (UniProt Q06330)
Assay: affinity purification with mass spectrometry; Flag-HA-RBPJ complexes from HeLa-S nuclear extract (salt extraction), dialysed with or without a double-stranded oligonucleotide with two RBPJ sites (2 µg) and a mutated oligonucleotide (16 µg); anti-Flag (M2) agarose in TAP buffer (50 mM Tris-HCl pH 7.9, 100 mM KCl, 5 mM MgCl2, 10% glycerol, 0.1% NP-40, 1 mM DTT) 4 h, 4 °C; eluted with Flag peptides; LC-MS/MS

binding, binds:
E2F6 (E2F Transcription Factor 6) (from UniProt O75461 1-281)
L3MBTL2 (Lethal (3) malignant brain tumor-like protein 2), endogenous in HeLa-S (from UniProt Q969R5 1-705)
MGA (MAX gene associated) (from UniProt Q8IWI9 1-3065)
NOTCH2 (from UniProt Q04721)
B1
